The values that follow come from PMC3146701.

This test deals with T1, Frizzled-6 (Fz-6) (mouse (endogenous in Tep1)) (UniProt Q61089).
T1 sequence: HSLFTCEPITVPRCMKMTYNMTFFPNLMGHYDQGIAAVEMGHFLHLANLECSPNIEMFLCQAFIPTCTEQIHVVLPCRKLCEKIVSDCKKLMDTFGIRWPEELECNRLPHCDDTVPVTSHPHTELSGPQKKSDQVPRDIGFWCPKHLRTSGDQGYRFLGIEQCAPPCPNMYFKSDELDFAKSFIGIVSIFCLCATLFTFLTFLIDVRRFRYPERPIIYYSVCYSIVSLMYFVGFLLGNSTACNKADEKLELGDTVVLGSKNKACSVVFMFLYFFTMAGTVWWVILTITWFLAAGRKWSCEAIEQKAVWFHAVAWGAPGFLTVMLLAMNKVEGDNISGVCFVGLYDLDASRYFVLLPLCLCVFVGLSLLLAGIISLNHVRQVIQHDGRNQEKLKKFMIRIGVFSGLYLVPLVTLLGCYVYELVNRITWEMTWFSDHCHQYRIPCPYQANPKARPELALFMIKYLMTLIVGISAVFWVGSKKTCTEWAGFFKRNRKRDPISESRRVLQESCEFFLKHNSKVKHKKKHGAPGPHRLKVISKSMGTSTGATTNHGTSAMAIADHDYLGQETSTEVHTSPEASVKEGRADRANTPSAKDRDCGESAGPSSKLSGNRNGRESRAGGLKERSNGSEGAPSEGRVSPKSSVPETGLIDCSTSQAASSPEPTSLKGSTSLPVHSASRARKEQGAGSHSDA
Kind of test: co-IP; Tep1 cells treated with control or Wnt-4 supernatants; cell lysates immunoprecipitated with anti-Fz-4 or anti-Fz-6 antibodies and protein G resin in the presence of protease and phosphatase inhibitors; blots probed for PKCδ and Dvl.

Results are given in words; binding and its absence hold for the method and conditions named. Binding seen in cells or lysates may run through a third protein. Binding calls can cover weak binding; strength is not graded here.

For the substance “Dishevelled (Dvl) (mouse (endogenous in Tep1))”, the binding entry was “binds”.
